Data on one substance can be found in article PMC9358705.

Sequences of proteins named here, by UniProt entry; tags and fusion partners are left off.
UniProt P21333: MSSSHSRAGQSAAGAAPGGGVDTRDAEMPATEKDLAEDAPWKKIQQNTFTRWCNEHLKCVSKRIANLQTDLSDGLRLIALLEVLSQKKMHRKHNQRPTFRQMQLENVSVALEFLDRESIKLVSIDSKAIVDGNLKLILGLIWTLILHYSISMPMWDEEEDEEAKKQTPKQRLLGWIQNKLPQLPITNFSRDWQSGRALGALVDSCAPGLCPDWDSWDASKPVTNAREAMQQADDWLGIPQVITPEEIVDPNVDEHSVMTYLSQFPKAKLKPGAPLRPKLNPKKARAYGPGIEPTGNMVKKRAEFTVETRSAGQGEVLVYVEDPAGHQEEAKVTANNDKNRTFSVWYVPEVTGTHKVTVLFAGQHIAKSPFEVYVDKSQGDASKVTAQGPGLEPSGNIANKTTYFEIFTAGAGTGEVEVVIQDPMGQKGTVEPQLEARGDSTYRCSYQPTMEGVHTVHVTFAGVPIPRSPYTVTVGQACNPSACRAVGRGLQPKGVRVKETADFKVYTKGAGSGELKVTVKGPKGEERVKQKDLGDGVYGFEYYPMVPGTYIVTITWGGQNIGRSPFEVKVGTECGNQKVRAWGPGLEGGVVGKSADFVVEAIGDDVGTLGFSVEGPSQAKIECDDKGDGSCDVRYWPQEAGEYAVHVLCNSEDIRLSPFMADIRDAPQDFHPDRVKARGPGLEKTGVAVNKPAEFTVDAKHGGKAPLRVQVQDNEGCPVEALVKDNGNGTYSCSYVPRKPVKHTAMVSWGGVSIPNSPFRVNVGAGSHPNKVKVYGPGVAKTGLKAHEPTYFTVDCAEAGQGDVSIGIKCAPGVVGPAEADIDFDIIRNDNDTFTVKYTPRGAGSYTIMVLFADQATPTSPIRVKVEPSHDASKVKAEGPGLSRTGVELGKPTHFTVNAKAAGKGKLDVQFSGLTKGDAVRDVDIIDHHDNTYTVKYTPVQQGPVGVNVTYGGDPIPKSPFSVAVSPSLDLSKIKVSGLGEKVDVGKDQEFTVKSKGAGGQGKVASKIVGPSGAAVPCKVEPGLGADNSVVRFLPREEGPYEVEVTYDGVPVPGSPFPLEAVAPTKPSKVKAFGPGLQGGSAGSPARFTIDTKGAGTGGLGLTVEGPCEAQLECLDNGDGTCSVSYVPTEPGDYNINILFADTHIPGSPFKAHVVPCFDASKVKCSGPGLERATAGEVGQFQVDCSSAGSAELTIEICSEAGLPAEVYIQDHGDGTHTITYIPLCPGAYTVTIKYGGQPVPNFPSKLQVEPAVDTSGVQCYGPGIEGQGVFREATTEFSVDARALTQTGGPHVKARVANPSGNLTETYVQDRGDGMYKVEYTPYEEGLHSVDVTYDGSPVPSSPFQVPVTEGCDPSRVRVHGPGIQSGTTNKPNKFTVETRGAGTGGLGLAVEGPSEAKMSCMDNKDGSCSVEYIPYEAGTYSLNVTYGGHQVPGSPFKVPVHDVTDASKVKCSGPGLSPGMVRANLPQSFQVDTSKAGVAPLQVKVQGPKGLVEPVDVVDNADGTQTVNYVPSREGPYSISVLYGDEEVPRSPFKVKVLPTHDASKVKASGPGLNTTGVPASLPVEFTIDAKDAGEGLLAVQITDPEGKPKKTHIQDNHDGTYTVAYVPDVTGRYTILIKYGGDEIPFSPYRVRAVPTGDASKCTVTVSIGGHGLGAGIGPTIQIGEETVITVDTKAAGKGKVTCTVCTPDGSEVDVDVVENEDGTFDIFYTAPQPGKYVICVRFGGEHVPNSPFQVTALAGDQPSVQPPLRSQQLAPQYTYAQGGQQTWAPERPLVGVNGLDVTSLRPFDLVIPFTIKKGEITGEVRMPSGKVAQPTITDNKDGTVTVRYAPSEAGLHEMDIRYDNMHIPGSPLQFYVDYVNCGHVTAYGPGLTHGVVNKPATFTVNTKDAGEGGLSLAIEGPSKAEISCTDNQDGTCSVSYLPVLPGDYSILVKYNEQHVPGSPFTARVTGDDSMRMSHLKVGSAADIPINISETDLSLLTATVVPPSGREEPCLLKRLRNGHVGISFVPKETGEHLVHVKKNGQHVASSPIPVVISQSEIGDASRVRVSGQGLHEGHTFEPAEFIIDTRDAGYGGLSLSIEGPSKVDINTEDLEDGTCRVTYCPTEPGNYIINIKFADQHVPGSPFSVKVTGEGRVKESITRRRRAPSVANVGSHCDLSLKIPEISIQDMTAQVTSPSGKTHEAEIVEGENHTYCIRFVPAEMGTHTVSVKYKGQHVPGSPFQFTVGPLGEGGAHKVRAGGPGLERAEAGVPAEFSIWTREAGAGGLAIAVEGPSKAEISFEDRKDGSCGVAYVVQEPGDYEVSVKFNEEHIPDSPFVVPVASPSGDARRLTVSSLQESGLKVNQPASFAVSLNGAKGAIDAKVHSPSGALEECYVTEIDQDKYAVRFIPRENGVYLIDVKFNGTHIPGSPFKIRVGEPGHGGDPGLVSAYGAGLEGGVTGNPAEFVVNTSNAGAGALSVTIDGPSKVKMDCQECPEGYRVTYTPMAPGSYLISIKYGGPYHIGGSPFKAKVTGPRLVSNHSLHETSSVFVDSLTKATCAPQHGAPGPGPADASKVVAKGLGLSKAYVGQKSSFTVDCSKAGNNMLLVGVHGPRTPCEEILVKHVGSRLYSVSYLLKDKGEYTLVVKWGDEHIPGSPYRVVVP

For the test, the target named is T1, Semaphorin 3d (human (endogenous in PLC/PRF/5; cDNA of the lentiviral construct in HCCLM3 not stated)) (UniProt O95025).
T1 sequence: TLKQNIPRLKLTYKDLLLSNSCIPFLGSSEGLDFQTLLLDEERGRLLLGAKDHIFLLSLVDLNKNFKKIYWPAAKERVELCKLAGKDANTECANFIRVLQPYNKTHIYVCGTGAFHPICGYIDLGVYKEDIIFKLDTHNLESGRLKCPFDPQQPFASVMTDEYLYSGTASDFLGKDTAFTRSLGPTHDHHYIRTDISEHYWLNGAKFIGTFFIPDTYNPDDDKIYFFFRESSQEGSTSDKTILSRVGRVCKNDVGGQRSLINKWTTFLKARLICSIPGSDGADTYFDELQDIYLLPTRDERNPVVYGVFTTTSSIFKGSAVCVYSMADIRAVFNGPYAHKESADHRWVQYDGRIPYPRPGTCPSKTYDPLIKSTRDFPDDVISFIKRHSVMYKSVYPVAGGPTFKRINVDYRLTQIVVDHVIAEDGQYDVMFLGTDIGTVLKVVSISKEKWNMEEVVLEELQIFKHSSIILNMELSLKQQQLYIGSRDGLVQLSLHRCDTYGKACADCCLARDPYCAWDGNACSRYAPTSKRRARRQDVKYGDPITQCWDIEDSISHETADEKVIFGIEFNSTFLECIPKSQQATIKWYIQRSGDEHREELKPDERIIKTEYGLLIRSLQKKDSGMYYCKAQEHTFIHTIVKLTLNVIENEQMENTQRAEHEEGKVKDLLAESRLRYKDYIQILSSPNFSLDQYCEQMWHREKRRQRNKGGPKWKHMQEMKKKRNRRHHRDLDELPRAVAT
The test can be described thus: affinity purification with mass spectrometry; co-IP with an anti-Sema3d antibody from Sema3d high-expressed HCC cells (HCCLM3 Sema3d; text also names PLC/PRF/5 shCtr), precipitate identified by LC-MS/MS, proteins ranked by Score Sequest.

These are yes or no findings as the source states them, for the method shown. In cells and extracts the contact can be indirect. Here binding means that the protein was enriched with, or labelled near, the bait; the list need not be complete.

Regarding filamin-A (from UniProt P21333 1-2647), the binding result is reported as “binds”.
